Data as given in publication PMC8201403.

The chains behind the UniProt entries cited, without tags or fusion partners. Where a name states a change or a piece, a line headed by the entry shows the natural chain unless it says otherwise.
UniProt P02765: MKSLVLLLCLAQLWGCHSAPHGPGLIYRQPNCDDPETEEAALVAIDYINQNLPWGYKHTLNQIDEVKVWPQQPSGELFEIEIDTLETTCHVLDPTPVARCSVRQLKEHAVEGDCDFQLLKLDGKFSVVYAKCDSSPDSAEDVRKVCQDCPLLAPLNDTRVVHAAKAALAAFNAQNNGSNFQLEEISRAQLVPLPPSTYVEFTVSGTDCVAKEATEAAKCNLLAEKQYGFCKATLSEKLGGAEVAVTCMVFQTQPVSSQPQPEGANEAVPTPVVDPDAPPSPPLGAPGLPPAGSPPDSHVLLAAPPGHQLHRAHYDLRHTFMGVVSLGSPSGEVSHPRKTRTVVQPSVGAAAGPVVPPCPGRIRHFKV
UniProt P02787: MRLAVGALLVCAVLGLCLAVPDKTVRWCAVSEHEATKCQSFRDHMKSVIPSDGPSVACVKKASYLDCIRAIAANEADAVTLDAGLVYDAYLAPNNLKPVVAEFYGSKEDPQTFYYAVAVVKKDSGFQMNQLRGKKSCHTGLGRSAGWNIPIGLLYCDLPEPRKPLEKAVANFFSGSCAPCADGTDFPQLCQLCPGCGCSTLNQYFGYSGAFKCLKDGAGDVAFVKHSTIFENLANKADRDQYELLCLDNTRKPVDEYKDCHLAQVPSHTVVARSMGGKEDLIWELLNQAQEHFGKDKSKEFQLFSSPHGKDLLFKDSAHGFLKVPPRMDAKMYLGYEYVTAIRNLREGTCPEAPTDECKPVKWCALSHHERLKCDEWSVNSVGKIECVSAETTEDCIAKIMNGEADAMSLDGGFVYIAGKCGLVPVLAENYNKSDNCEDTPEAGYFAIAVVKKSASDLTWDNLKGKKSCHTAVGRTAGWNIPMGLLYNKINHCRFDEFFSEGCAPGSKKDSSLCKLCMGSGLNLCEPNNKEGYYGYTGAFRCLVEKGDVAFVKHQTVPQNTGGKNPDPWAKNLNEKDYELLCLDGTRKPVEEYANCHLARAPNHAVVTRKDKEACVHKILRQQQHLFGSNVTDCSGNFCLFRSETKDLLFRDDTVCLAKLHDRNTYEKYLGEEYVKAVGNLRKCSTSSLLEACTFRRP
UniProt P68871: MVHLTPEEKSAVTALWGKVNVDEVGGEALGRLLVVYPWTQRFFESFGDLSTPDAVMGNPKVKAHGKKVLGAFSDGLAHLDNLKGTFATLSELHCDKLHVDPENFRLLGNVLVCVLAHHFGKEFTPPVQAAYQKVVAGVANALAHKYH

Columns and labels:
AHSG-Mut-HA = AHSG-Mut-HA (UniProt P02765); experiment: co-IP; NDP/NUP-HA (WT or Mut) precipitated with anti-HA in Bel-7402 cells; RPL7A, HBB and HIST1H4H detected with their antibodies (Figure 7A)
TF-Mut-HA = TF-Mut-HA (UniProt P02787); experiment: as above

HBB, endogenous (from UniProt P68871 1-147)
binding (AHSG-Mut-HA): no binding | binding (TF-Mut-HA): no binding

These are yes or no findings as the source states them, for the method shown. In cells and extracts the contact can be indirect.
